No constants are given. Whether binding was seen depends on the method and setting. Binding seen in cells or lysates may run through a third protein. A result given as binding can be weak or reduced; the word gives no strength. Sequences can lack the tags named with a protein.
Tests used:
[1] = target: T1, Flag-tagged full-length UPF1 (human) (UniProt Q92900); experiment: co-IP; Flag-tagged bait immunopurified from HEK293 lysate on anti-Flag M2 agarose, 4-8 ug purified prey added for 45 min; washed with 20 mM Hepes pH 7.5, 70 mM NaCl, 10% glycerol, 1 mM MgCl2, 1 uM ZnCl2; SDS-PAGE, Coomassie; without RNase A; both purified
T1 sequence: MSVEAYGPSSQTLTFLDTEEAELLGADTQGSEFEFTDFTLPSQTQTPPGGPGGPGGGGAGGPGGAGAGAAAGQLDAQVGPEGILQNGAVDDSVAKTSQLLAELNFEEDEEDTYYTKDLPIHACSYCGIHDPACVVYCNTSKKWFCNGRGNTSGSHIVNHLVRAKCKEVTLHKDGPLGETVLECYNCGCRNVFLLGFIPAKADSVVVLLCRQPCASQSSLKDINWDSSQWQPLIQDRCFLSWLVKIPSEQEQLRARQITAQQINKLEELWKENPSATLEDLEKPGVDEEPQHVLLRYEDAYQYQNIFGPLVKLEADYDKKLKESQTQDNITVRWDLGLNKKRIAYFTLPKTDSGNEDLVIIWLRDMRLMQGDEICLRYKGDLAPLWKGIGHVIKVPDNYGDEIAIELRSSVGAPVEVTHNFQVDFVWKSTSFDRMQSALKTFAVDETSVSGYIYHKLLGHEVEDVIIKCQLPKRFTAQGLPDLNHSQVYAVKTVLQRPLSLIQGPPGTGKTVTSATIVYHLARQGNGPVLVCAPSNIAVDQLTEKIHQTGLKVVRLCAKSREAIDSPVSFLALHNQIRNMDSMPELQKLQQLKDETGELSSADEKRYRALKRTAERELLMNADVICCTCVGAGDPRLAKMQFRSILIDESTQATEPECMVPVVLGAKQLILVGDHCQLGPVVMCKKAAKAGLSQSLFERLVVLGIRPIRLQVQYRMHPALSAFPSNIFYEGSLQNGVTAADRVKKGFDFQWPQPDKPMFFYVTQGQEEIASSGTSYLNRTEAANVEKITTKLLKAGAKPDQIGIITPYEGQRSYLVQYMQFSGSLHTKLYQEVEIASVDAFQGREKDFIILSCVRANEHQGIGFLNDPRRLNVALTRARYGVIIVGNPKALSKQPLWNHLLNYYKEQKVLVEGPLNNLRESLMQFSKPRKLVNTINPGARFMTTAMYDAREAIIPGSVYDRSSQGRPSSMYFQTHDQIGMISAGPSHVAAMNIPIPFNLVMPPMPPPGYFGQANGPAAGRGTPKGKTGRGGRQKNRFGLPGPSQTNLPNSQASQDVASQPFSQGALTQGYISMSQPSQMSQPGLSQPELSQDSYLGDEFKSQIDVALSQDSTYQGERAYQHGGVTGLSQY

[2] = target: T1, Flag-tagged full-length UPF1 (human); experiment: co-IP; as a2, but cell lysates treated with RNase A (60 ug/uL, 10 min, 25 C); SDS-PAGE, Coomassie, densitometry of the UPF2 band; both purified

## UPF3 (human)
[1]
  binding: binds
[2]
  binding: binds

Reference: article PMC12305709, “Functional investigation of the RNA helicase MOV10 with respect to its interplay with factors involved in nonsense-mediated mRNA decay” (The Journal of Biological Chemistry, 2025)
